These are yes or no findings as the source states them, for the method shown. In cells and extracts the contact can be indirect. Some results given as binding are weak or reduced against the parent protein; the word gives no strength.

The target in the experiment is T1, Dual-specificity phosphatase 1 (DUSP1) (human (endogenous in U266 and RPMI-8226)) (UniProt P28562).
T1 sequence: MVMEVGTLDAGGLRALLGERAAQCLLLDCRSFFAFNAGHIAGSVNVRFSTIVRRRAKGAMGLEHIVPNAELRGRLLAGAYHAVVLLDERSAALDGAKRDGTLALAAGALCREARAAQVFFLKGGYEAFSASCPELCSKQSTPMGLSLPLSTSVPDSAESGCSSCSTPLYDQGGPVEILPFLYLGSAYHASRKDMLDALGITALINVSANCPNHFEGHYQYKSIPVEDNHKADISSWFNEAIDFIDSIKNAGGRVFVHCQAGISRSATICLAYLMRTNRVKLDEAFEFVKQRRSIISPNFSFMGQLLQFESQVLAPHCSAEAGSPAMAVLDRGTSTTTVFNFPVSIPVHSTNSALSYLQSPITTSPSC
In words: co-IP; Protein A/G magnetic bead immunoprecipitation kit; lysates of U266 and RPMI-8226 cells; antibody-bead complex incubated with the protein sample at 25°C; eluted with SDS-PAGE loading buffer, Western blot; different antibodies used for immunoprecipitation. On the technique in general: In western blotting, separated proteins are transferred to a membrane and probed.

B1: Sperm-associated antigen 6 (SPAG6) (protein, UniProt O75602 1-509)
chain: MSQRQVLQVFEQYQKARTQFVQMVAELATRPQNIETLQNAGVMSLLRTLLLDVVPTIQQTAALALGRLANYNDDLAEAVVKCDILPQLVYSLAEQNRFYKKAAAFVLRAVGKHSPQLAQAIVDCGALDTLVICLEDFDPGVKEAAAWALRYIARHNAELSQAVVDAGAVPLLVLCIQEPEIALKRIAASALSDIAKHSPELAQTVVDAGAVAHLAQMILNPDAKLKHQILSALSQVSKHSVDLAEMVVEAEIFPVVLTCLKDKDEYVKKNASTLIREIAKHTPELSQLVVNAGGVAAVIDCIGSCKGNTRLPGIMMLGYVAAHSENLAMAVIISKGVPQLSVCLSEEPEDHIKAAAAWALGQIGRHTPEHARAVAVTNTLPVLLSLYMSTESSEDLQVKSKKAIKNILQKCTYLPALEPFLYDAPPNILKHVVGQFSKVLPHDSKARRLFVTSGGLKKVQEIKAEPGSLLQEYINSINSCYPEEIVRYYSPGYSDTLLQRVDSYQPLNN
B1: the binding result is reported as “binds”.

For the origin of these results see paper PMC12174100.
